No constants are given. Whether binding was seen depends on the method and setting. Some results given as binding are weak or reduced against the parent protein; the word gives no strength.

Chains of the proteins cited; added tags and fusions are not shown. Lines headed by an entry give the natural chain unless they say otherwise; changes in a name come on top. A line that says so, or that is headed by a name, gives the form on record, which may keep a tag or linker.
APOBEC3G NPM mutant (Q9HC16, form named): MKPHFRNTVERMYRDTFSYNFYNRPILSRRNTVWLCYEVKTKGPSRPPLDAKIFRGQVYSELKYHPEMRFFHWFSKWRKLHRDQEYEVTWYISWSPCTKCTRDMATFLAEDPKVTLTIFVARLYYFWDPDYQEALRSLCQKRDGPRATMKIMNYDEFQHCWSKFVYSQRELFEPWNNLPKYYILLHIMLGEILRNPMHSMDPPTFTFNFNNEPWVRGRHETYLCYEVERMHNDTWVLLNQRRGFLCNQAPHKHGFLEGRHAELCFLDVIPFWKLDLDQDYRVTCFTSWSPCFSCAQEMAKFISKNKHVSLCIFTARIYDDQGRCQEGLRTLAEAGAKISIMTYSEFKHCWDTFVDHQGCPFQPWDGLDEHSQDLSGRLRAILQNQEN

The target of the assay is APOBEC3G NPM mutant (human) (UniProt Q9HC16). As to the kind of experiment: SEC; data not shown; oligomerization state of the mutant enzymes, method as told for the A3 enzymes (Superdex 200, 50 mM Tris pH 7.5, 200 mM NaCl); both purified. (SEC sorts molecules by how far they enter the pores of the column.)

“APOBEC3G NPM mutant (from UniProt Q9HC16 1-384) (enzyme)”: the binding entry is given as “binds weakly”.

Values taken from article PMC3961392.
